# According to patent US8759301B2, “Gene fusion targeted therapy” (The Regents of The University of Michigan, priority 2010, dated 2014):
# Amino acid sequences for entries named in this document (tags omitted).
# UniProt P10275, whole entry T878A: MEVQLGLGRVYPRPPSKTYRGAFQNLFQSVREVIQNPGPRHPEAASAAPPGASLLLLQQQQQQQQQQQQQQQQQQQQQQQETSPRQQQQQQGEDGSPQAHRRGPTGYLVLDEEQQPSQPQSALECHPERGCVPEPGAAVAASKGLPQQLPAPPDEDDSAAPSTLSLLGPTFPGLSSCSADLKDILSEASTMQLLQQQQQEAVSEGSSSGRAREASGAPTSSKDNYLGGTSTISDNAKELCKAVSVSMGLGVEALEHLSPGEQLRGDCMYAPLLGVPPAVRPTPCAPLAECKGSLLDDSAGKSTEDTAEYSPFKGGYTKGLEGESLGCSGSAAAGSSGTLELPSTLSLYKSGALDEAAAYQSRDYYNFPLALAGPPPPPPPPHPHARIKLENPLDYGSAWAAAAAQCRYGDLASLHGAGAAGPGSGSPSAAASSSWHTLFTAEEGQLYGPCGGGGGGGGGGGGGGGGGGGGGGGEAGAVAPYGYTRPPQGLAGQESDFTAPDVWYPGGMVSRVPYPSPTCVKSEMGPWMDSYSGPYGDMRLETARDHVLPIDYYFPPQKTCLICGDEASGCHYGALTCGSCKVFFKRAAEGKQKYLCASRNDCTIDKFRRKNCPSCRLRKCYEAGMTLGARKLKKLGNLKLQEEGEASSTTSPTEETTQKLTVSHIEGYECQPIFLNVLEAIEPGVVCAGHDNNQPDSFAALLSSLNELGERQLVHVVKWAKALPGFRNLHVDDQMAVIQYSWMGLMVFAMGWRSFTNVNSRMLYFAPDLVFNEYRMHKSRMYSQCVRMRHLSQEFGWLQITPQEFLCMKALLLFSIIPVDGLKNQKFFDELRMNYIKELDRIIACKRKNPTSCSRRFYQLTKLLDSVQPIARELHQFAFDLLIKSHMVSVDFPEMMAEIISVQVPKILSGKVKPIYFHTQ
# Where two headings read alike, the source gives them in different places. This continues a long series; more values of the same kind are listed elsewhere.
# Target: AR (Homo sapiens, UniProt P10275, T878A)
# Conditions: LNCaP R1881-treated
structure (smiles),measurement,setting,value
"C[C@]1(O)CC[C@H]2[C@@H]3CCC4=CC(=O)CCC4=C3C=C[C@@]21C [R1881, methyltrienolone]",number of AR binding sites,distance to TSS 107 kb,34
same,number of AR binding sites,distance to TSS 108 kb,26
same,number of AR binding sites,distance to TSS 109 kb,24
same,number of AR binding sites,distance to TSS 110 kb,18
same,number of AR binding sites,distance to TSS 111 kb,27
same,number of AR binding sites,distance to TSS 112 kb,23
same,number of AR binding sites,distance to TSS 113 kb,26
same,number of AR binding sites,distance to TSS 114 kb,23
same,number of AR binding sites,distance to TSS 115 kb,29
same,number of AR binding sites,distance to TSS 116 kb,27
same,number of AR binding sites,distance to TSS 117 kb,19
same,number of AR binding sites,distance to TSS 118 kb,22
same,number of AR binding sites,distance to TSS 119 kb,21
same,number of AR binding sites,distance to TSS 120 kb,20
same,number of AR binding sites,distance to TSS 121 kb,21
same,number of AR binding sites,distance to TSS 122 kb,20
same,number of AR binding sites,distance to TSS 123 kb,21
same,number of AR binding sites,distance to TSS 124 kb,29
same,number of AR binding sites,distance to TSS 125 kb,15
same,number of AR binding sites,distance to TSS 126 kb,16
same,number of AR binding sites,distance to TSS 127 kb,22
same,number of AR binding sites,distance to TSS 128 kb,24
same,number of AR binding sites,distance to TSS 129 kb,20
same,number of AR binding sites,distance to TSS 130 kb,23
same,number of AR binding sites,distance to TSS 131 kb,23
same,number of AR binding sites,distance to TSS 132 kb,17
same,number of AR binding sites,distance to TSS 133 kb,14
same,number of AR binding sites,distance to TSS 134 kb,22
same,number of AR binding sites,distance to TSS 135 kb,24
same,number of AR binding sites,distance to TSS 136 kb,25
same,number of AR binding sites,distance to TSS 137 kb,25
same,number of AR binding sites,distance to TSS 138 kb,19
same,number of AR binding sites,distance to TSS 139 kb,22
same,number of AR binding sites,distance to TSS 140 kb,20
same,number of AR binding sites,distance to TSS 141 kb,18
same,number of AR binding sites,distance to TSS 142 kb,20
same,number of AR binding sites,distance to TSS 143 kb,16
same,number of AR binding sites,distance to TSS 144 kb,16
same,number of AR binding sites,distance to TSS 145 kb,11
same,number of AR binding sites,distance to TSS 146 kb,17
same,number of AR binding sites,distance to TSS 147 kb,22
same,number of AR binding sites,distance to TSS 148 kb,14
same,number of AR binding sites,distance to TSS 149 kb,13
same,number of AR binding sites,distance to TSS 150 kb,19
same,number of AR binding sites,distance to TSS 151 kb,15
same,number of AR binding sites,distance to TSS 152 kb,14
same,number of AR binding sites,distance to TSS 153 kb,12
same,number of AR binding sites,distance to TSS 154 kb,26
same,number of AR binding sites,distance to TSS 155 kb,19
same,number of AR binding sites,distance to TSS 156 kb,13
same,number of AR binding sites,distance to TSS 157 kb,13
same,number of AR binding sites,distance to TSS 158 kb,19
same,number of AR binding sites,distance to TSS 159 kb,16
same,number of AR binding sites,distance to TSS 160 kb,16
same,number of AR binding sites,distance to TSS 161 kb,9
same,number of AR binding sites,distance to TSS 162 kb,16
same,number of AR binding sites,distance to TSS 163 kb,14
same,number of AR binding sites,distance to TSS 164 kb,5
same,number of AR binding sites,distance to TSS 165 kb,15
same,number of AR binding sites,distance to TSS 166 kb,15
same,number of AR binding sites,distance to TSS 167 kb,10
same,number of AR binding sites,distance to TSS 168 kb,8
same,number of AR binding sites,distance to TSS 169 kb,15
same,number of AR binding sites,distance to TSS 170 kb,14
same,number of AR binding sites,distance to TSS 171 kb,14
same,number of AR binding sites,distance to TSS 172 kb,16
same,number of AR binding sites,distance to TSS 173 kb,17
same,number of AR binding sites,distance to TSS 174 kb,13
same,number of AR binding sites,distance to TSS 175 kb,10
same,number of AR binding sites,distance to TSS 176 kb,11
same,number of AR binding sites,distance to TSS 177 kb,15
same,number of AR binding sites,distance to TSS 178 kb,7
same,number of AR binding sites,distance to TSS 179 kb,10
same,number of AR binding sites,distance to TSS 180 kb,11
same,number of AR binding sites,distance to TSS 181 kb,14
same,number of AR binding sites,distance to TSS 182 kb,12
same,number of AR binding sites,distance to TSS 183 kb,10
same,number of AR binding sites,distance to TSS 184 kb,11
same,number of AR binding sites,distance to TSS 185 kb,11
same,number of AR binding sites,distance to TSS 186 kb,16
same,number of AR binding sites,distance to TSS 187 kb,19
same,number of AR binding sites,distance to TSS 188 kb,12
same,number of AR binding sites,distance to TSS 189 kb,9
same,number of AR binding sites,distance to TSS 190 kb,7
same,number of AR binding sites,distance to TSS 191 kb,14
same,number of AR binding sites,distance to TSS 192 kb,19
same,number of AR binding sites,distance to TSS 193 kb,10
same,number of AR binding sites,distance to TSS 194 kb,11
same,number of AR binding sites,distance to TSS 195 kb,9
same,number of AR binding sites,distance to TSS 196 kb,10
same,number of AR binding sites,distance to TSS 197 kb,8
same,number of AR binding sites,distance to TSS 198 kb,15
same,number of AR binding sites,distance to TSS 199 kb,8
